Reference: PMC12613623
These are yes or no findings as the source states them, for the method shown. Binding seen in cells or lysates may run through a third protein. A result given as binding can be weak or reduced; the word gives no strength.

Molecular target: SIRT3, endogenous in primary neonatal mouse ventricular myocytes (mouse (endogenous in NMVMs))
Assay: co-IP; endogenous proteins from NMVM lysate; antibodies against ATP5O, SIRT3 or acetylated lysine overnight at 4 °C, protein A/G-agarose beads; western blot with anti-SIRT3 and anti-ATP5O; control, DCM (HG/PA) and CVB-D groups

binding: binds
B1: ATP5O, endogenous in primary neonatal mouse ventricular myocytes (protein, UniProt Q9DB20 24-213)
chain: FAKLVRPPVQVYGIEGRYATALYSAASKEKKLDQVEKELLRVGQLLKDPKVSLAVLNPYIKRTVKVKSLNDITKREKFSPLTANLMNLLAENGRLGNTQGIISAFSTIMSVHRGEVPCTVTTASPLDDAVLSELKTVLKSFLSPNQILKLEIKTDPSIMGGMIVRIGEKYVDMSAKSKIQKLSKAMREML
